No constants are given. Whether binding was seen depends on the method and setting. Binding seen in cells or lysates may run through a third protein. Some binding calls cover weakened binding; strength is not graded here. Sequences can lack the tags named with a protein.
Assays:
[1] = biological target: T1, Wnt1 tagged with HA at its carboxy terminus (mouse) (UniProt P04426); assay: co-IP; Oto and Wnt1 co-expressed in 293 cells; soluble and insoluble Wnt1; data not shown
T1 sequence: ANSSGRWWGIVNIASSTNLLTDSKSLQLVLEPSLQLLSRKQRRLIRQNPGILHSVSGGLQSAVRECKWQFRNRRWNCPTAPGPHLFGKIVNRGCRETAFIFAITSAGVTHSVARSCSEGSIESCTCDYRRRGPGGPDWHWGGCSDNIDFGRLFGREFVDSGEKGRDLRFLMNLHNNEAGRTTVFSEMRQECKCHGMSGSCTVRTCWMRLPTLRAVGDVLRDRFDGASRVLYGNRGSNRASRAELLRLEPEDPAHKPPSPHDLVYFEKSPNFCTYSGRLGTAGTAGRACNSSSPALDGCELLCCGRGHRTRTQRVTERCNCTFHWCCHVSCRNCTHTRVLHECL

Sequences of proteins named here, by UniProt entry; tags and fusion partners are left off. Residues count along the entry.
UniProt P27467, residues 19-352: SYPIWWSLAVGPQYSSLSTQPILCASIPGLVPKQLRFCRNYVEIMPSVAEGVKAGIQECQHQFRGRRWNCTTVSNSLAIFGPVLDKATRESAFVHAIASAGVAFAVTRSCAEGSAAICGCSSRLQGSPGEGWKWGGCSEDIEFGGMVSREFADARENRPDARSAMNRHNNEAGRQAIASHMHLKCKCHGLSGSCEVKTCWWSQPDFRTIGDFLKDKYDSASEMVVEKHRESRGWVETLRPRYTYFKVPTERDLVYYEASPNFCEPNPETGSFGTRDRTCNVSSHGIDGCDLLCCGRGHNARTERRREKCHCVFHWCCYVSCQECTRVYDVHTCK

[2] = biological target: Oto-modified Wnt3a (42 kDa hydrophobic isoform of Wnt3a-HA) (mouse) (UniProt P27467); assay: co-IP; Wnt3a immunopurified from 35S-labeled Oto+Wnt3a insoluble extracts by the same method; co-precipitated proteins seen by autoradiography of the gel
[3] = biological target: Wnt3a tagged with HA at its carboxy terminus (mouse) (UniProt P27467); assay: co-IP; Wnt3a-HA immunopurified on HA affinity matrix from soluble (RIPA) extracts of 293 cells co-expressing Oto and Wnt3a, non-denaturing conditions; Western blot
[4] = biological target: Oto-modified Wnt3a (42 kDa hydrophobic isoform of Wnt3a-HA) (mouse) (UniProt P27467); assay: co-IP; Wnt3a-HA immunoprecipitated on HA matrix from insoluble extracts of Oto+Wnt3a 293 cells (pellet in 1% SDS, 20 mM Hepes pH 7, 150 mM NaCl, 10 mM DTT, 10 min at 80°C, diluted 10x with SDS-free RIPA); Western blot

Measured: binding

B1: Oto (mouse ortholog of the gpi deacylase PGAP1), 3xflag-tagged (protein, UniProt Q3UUQ7 1-922)
chain: MFLHSVNLWNLAFYVFMVFLATLGLWDVFFGFEENKCSMSYMFEYPEYQKIELPKKLTKRYPAYELYLYGEGSYAEEHKILPLTGIPVLFLPGNAGSYKQVRSIGSIALRKAEDIDFKYHFDFFSVNFNEELVALYGGSLQKQTKFVHECIKAILKLYKGQEFAPTSVAIIGHSMGGLVARALLTLKNFKQDLINLLVTQATPHVAPVMPLDRFITEFYMNVNNYWILNARHINLTTLSVAGGFRDYQVRSGLTFLPKLSHYTSALSVVSSAVPKTWVSTDHLSIVWCKQLQLTTIRAFFDLIDADTKQITQKPKKKLSVLNHHFIRHPAKQFEENPSIISDLTGTSMWVPVKVSRWSYVAYNESDKIYFAFPLANHRKIYTHAYCQSTMLDTNSWIFGCINSTSMCRQGVDLSWKAELLPTIKSLTLRLQDYPSLSHIVVYVPSVHGSKFVVDCEFFKKEARSMQLPVTHLFSFGLSSRKVTLNTNGLYYNIELLNFGQIYQAFKVNVVSKCTGSKEEITSIYKLHIPWSYEDSLTIAQVPSSTDISLKLHVAQPENDSHVALLKMYTSSDCQYEVTIKTSFPQILGQVVRFHGGALPAYVVSSILLAYGGQLYSLLSTGYCLEYSTILDKEAKPYKVDPFVIMIKFLLGYKWFKELWDAVLLPELDAIVLTSQSMCFPLVSLILFLFGTCTAYWSGLLSSTSVQLLSSLWLALKRPAELPKDIKVMSPDLPVLTVVFLIVSWTTCGALAILLSYLYYVFKVVHLQASLTTFKNNQPVNPKHSRRSEKKSNHHKDSAVQSLRLCANDAEDSLRMHSTVINLLTWVVLLSMPSLIYWLKNLRYYFKLSPDPCKPLAFLLIPAIAILGNTHTVSVKSSKLLKTVSQFPLPLAVGVIAFGSSHLYRVPCFVIIPLVFHALCNFM
binds: all assays above

— article PMC2703784
